In US20200199567A1, “METHODS FOR SELECTION AND EXPANSION OF T CELLS EXPRESSING PD-1” (MEDIMMUNE, LLC, priority 2018, published 2020):

B1: LO115: anti-PD-1 antibody (antibody)
heavy: EVQLVESGGGLVQPGGSLRLSCAASGFTFSDYGMHWVRQAPGKGLEWVAYISSGSYTIYSADSVKGRFTISRDNAKNSLYLQMNSLRAEDTAVYYCARRAPNSFYEYYFDYWGQGTTVTVSSASTKGPSVFPLAPSSKSTSGGTAALGCLVKDYFPEPVTVSWNSGALTSGVHTFPAVLQSSGLYSLSSVVTVPSSSLGTQTYICNVNHKPSNTKVDKRVEPKSCDKTHTCPPCPAPEFEGGPSVFLFPPKPKDTLMISRTPEVTCVVVDVSHEDPEVKFNWYVDGVEVHNAKTKPREEQYNSTYRVVSVLTVLHQDWLNGKEYKCKVSNKALPASIEKTISKAKGQPREPQVCTLPPSREEMTKNQVSLSCAVKGFYPSDIAVEWESNGQPENNYKTTPPVLDSDGSFFLVSKLTVDKSRWQQGNVFSCSVMHEALHNHYTQKSLSLSPGK
light: QIVLTQSPATLSLSPGERATLSCSASSKHTNLYWSRHMYWYQQKPGQAPRLLIYLTSNRATGIPARFSGSGSGTDFTLTISSLEPEDFAVYYCQQWSSNPFTFGQGTKLEIKRTVAAPSVFIFPPSDEQLKSGTASVVCLLNNFYPREAKVQWKVDNALQSGNSQESVTEQDSKDSTYSLSSTLTLSKADYEKHK
B2: MEDI0680: anti-PD-1 antibody (antibody, V domains shown)
VH: EVQLVESGGGLVQPGGSLRLSCAASGFTFSDYGMHWVRQAPGKGLEWVAYISSGSYTIYSADSVKGRFTISRDNAKNTLYLQMSSLRAEDTAVYYCARRGYGSFYEYYFDYWGQGTTVTVSS
VL: QIVLTQSPATLSLSPGERATLSCSASSSVSYMYWYQQKPGQAPRLLIYLTSNRATGIPARFSGSGSGTDYSSTLTISSLEPEDFAVYYCQQWSSNPFTFGQGTKLEIK

Test system: PD-1 expressing T cells
Assay: Magnetic bead enrichment (selection) of PD-1 expressing T cells with biotinylated anti-PD-1 antibody
Format: cell-based, human
Procedure: Donor blood was obtained in the form of human peripheral blood through standard leukapheresis or blood draw protocols. The red blood cells were removed from the donor blood by centrifugation protocols known in the art. Briefly, the peripheral blood was centrifuged, the supernatant discarded, the pellet was resuspended in ammonium chloride potassium (ACK) buffer, the ACK pellet suspension was incubated at room temperature, and the cells were washed twice in wash buffer to produce a cell pellet.
Enrichment of the PD-1 expressing cells was then performed. The washed cell pellet was resuspended in wash buffer and cell count determined. Wash buffer was added to bring the cell density to 100×10^6 cells per mL. 1 μg/mL MEDI3097 antibody was added to the cells to produce an antibody-cell mixture comprising cells and MEDI3097 antibody. The antibody mixture was incubated at 4° C. for 15 minutes and then centrifuged and washed twice with wash buffer. Wash buffer was added to bring cell density to 125×10^6 cells per mL. Anti-biotin beads were then added to the cells at a concentration of 2 mL beads per 1 billion cells to produce a bead mixture. […]
Enrichment of PD-1 expressing T cells was performed after red blood cells were removed from leukapheresis products. The washed cell pellet was resuspended in wash buffer and cell count determined. […]

| Molecule | PD-1 expression of selected T cells versus biotinylated antibody concentration (concentration adjusted (0.5 μg/mL to 0.05 μg/mL)) | PD-1 expression level of isolated cells versus ratio of biotinylated to unmodified antibody (total anti-PD-1 antibody concentration constant) |
| --- | --- | --- |
| B1 | expression of PD-1 high T cells increases as the concentration of the biotinylated antibody decreases |  |
| B2 |  | the PD-1 expression level of isolated cells increased as the ratio of unmodified anti-PD-1 antibody increased |
